Among the data in paper PMC7819943, “Rice protein-binding microarrays: a tool to detect cis-acting elements near promoter regions in rice” are binding signal values, retold here.

The other results are listed elsewhere or left out.

In the experiment the target is T1, OsSMF1 (Oryza sativa, UniProt Q6ZLB0 1-436).
T1 sequence: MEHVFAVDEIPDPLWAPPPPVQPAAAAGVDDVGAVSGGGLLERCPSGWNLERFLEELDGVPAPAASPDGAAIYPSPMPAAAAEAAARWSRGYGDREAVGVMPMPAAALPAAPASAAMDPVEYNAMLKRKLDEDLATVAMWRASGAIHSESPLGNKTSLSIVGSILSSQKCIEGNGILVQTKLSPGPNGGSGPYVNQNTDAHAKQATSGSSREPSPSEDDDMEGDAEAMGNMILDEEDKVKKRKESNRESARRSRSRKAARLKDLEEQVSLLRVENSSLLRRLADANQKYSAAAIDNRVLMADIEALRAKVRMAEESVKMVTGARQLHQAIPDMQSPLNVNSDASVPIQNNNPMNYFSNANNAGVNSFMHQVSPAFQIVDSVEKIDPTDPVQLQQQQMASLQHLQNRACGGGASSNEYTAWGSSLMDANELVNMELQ
Kind of experiment: protein-binding microarray (RPBM); PBS, 2% BSA, 51.3 ng/ul salmon testes DNA, 50 uM zinc acetate, 200 nM TF, 25 C, 1 h; high values mean tight binding. The conditions noted are these: protein: recombinant; tags: N-terminal polyhistidine and DsRed monomer fusion (pET32a); chain copies: 2; label: CyDye5-dUTP incorporated in the synthesized complementary strand; 3' TTTTT single-stranded linker to array surface; dsDNA, one strand shown. An outline of the steps: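 The binding signal for each feature is its fluorescence intensity in arbitrary units. An Axon 4000B scanner was used to read a custom Agilent array that had been made double-stranded with Cy5-dUTP primer extension, blocked with 2% BSA, incubated at 25 °C for 1 h with 200 nM protein in PBS, 2% BSA, salmon testes DNA and 50 µM zinc acetate, and washed. The protein was an N-terminal polyhistidine–DsRed transcription factor fusion from E. coli BL21-CodonPlus, purified on Ni–NTA.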
As to “AGAGCCAAGAGAGAGGGAGACGCGTCACCACCCTTCCCTTCGGAGTCACCTAGTGCAG”, the binding signal was 9080 fluorescence intensity (a.u.). The result for “GTGCAAGTTTTGTCACTTCTATTGGCATGGAGTCGTCTCTCGGAGTCACCTAGTGCAG” reads 4180 fluorescence intensity (a.u.); that for “ATATAAATTTTGGCTCCTAATTGACATCAATCCAAACACACGGAGTCACCTAGTGCAG”, 3570 fluorescence intensity (a.u.); that for “TTACGGCGTAAGCCGGCTTACGACGTAAGCCAGAAGGTCCCGGAGTCACCTAGTGCAG”, 3380 fluorescence intensity (a.u.).

“TGGACTTTGAATCCATCCACCTCATCCTCCTCCCGCGTACCGGAGTCACCTAGTGCAG”: the binding signal was 6720 fluorescence intensity (a.u.). As for “TGGGAGCGCTGGGGCTGGCCATCTCTCCTTGCCTGCTGTGCGGAGTCACCTAGTGCAG”, the figure is 29400 fluorescence intensity (a.u.); as for “CCTCTCGTCTCGCTCGTCGCGGCCACCTCTCTTTCTCTCTCGGAGTCACCTAGTGCAG”, 30500 fluorescence intensity (a.u.); as for “CGAGACTGACAAGGCATTCCAGACACTTAAACAAGCACTGCGGAGTCACCTAGTGCAG”, 3350 fluorescence intensity (a.u.). The result for “TGCTAATACACCGTATGACGTATTATCCATATTCGGCCAACGGAGTCACCTAGTGCAG” reads 7520 fluorescence intensity (a.u.). Consider “TGCCTACCGATGACGCAGTCCTCCCTCCTTTCTTTTCGGTCGGAGTCACCTAGTGCAG”, for which the binding signal is 8400 fluorescence intensity (a.u.). As for “GAAGAGAGAGGAGGCTGATGTGGCCACGCTGACATGTGGGCGGAGTCACCTAGTGCAG”, the figure is 8310 fluorescence intensity (a.u.); as for “ATACAAGATCAATATCCGTGCTGACGCAAATAGGAAATGGCGGAGTCACCTAGTGCAG”, 3850 fluorescence intensity (a.u.).

In the case of “CCACATGCCAATTGTGATGGAGATGGACAATGCTGAAATTCGGAGTCACCTAGTGCAG”, the binding signal was 3150 fluorescence intensity (a.u.). With “TTACTATATGGGCGACCACTGGCAACATGGTCCCACGTGCCGGAGTCACCTAGTGCAG”, the binding signal is 3760 fluorescence intensity (a.u.).

For “CAAAGCAAAACCTTGGGCAGAACACGTACTCCCTCCGTTTCGGAGTCACCTAGTGCAG”, the binding signal is 3620 fluorescence intensity (a.u.).

For “CTTGGTGGTTTTATAGGGTGGTTTCGCTGACGTGGCGTGGCGGAGTCACCTAGTGCAG”, the binding signal was 44600 fluorescence intensity (a.u.). “CTCTTTTATAATAGTAGTCCATCTCTTAACACTAGTCAACCGGAGTCACCTAGTGCAG”: the binding signal is 3260 fluorescence intensity (a.u.). As for “AAAGTTGCTGCTCGATGGGTTATGACTTTAGCTTTGGTCGCGGAGTCACCTAGTGCAG”, the figure is 4400 fluorescence intensity (a.u.); as for “TTTAAGTACAGTCATGATTTTCCGTGCACAACTTTAACCGCGGAGTCACCTAGTGCAG”, 4160 fluorescence intensity (a.u.). As for “GAATGAATTGGTGCCACGTGTCAAGAGAACGAACGGGCTTCGGAGTCACCTAGTGCAG”, the figure is 24900 fluorescence intensity (a.u.). Regarding “CGCGAGGTACTGTGGATGAATTTGAGCTGTATCGCGAGTGCGGAGTCACCTAGTGCAG”, the binding signal is 3540 fluorescence intensity (a.u.).

With “ACCAAACAGCAACCTATCAAGCAATGACAAATACTTTCCACGGAGTCACCTAGTGCAG”, the binding signal was 3380 fluorescence intensity (a.u.). As for “CGCCATGTCAGCTTCATCCTCGCCACGTCCTCCCATGTCACGGAGTCACCTAGTGCAG”, the figure is 17400 fluorescence intensity (a.u.); as for “GTTGGTCATTTCATCTCCATGCCGACTGCGTCAGCTATTGCGGAGTCACCTAGTGCAG”, 3300 fluorescence intensity (a.u.). For the sequence “CCGTGCTCCGCGCCACGACGACGACGACGACCACCACCACCGGAGTCACCTAGTGCAG”, the binding signal is 3210 fluorescence intensity (a.u.). As for “AATCACGGTATCTCTCATGATTTTCACGGTAACTACAGTTCGGAGTCACCTAGTGCAG”, the figure is 20800 fluorescence intensity (a.u.); as for “CCTGTGATTGCTCGGTAATATTAACTTGATCGCTTGCACACGGAGTCACCTAGTGCAG”, 3360 fluorescence intensity (a.u.); as for “CTTGAACATATACGTGGGCGTGTAATAAAGGACTTTCTTCCGGAGTCACCTAGTGCAG”, 4280 fluorescence intensity (a.u.). As for “GCTCGTTGTCATCACCTGCTCCAAGCCACGGGGCCTCCTCCGGAGTCACCTAGTGCAG”, the figure is 3720 fluorescence intensity (a.u.); as for “CAATCAATGACATGTGGGTCCCTCCTTTTGACTCAGCAAGCGGAGTCACCTAGTGCAG”, 10500 fluorescence intensity (a.u.); as for “CAATCTCGAGATTCTCCGCTGCTATTATCCCCGATCCAAACGGAGTCACCTAGTGCAG”, 3550 fluorescence intensity (a.u.). As for “AGGACACGTAGCATTTCCTCCTCAAGCAAGAGGAGCAGTACGGAGTCACCTAGTGCAG”, the figure is 4000 fluorescence intensity (a.u.); as for “GGATTGAATTAAACCCTTACATCTAAACTTGCGTGTCAGTCGGAGTCACCTAGTGCAG”, 5600 fluorescence intensity (a.u.); as for “GTGTAACACGATTACACGTGTAGCGCACATAAGCACCAAACGGAGTCACCTAGTGCAG”, 4330 fluorescence intensity (a.u.). In the case of “CTTCTGCCGCGCCACCAACCATCCATCGCTGACGCTTCCACGGAGTCACCTAGTGCAG”, the binding signal is 4170 fluorescence intensity (a.u.). Take “GCGTACCCATCTTAGTGAGTAGGACGGAGCCATGGAGGGTCGGAGTCACCTAGTGCAG”: the binding signal is 3860 fluorescence intensity (a.u.). As for “CCGCCGGCGAGCCCTCGCCTTCCTCCACGCGGCCAGCGCCCGGAGTCACCTAGTGCAG”, the figure is 3300 fluorescence intensity (a.u.); as for “GCGCCGTCGTCGTCGCTGCCGTGGCGCCGCCGCGGCCACCCGGAGTCACCTAGTGCAG”, 6800 fluorescence intensity (a.u.).

As for “CCAAGATTTCACAGCTGAGGATTCCACGCGCGAAGACATCCGGAGTCACCTAGTGCAG”, the binding signal was 3180 fluorescence intensity (a.u.). The result for “GGTGCTTATACTGGTAGGATACGTGTGTATAGGTGAGCGTCGGAGTCACCTAGTGCAG” reads 3430 fluorescence intensity (a.u.); that for “TTTGGGAGAATGGTCAGTCAGCTTACGTGGAGAGCCCAGTCGGAGTCACCTAGTGCAG”, 14200 fluorescence intensity (a.u.). In the case of “GCGGGTCGCTCCTGCCTGTGTCAGCCCCAACAGCTACTGCCGGAGTCACCTAGTGCAG”, the binding signal was 4070 fluorescence intensity (a.u.).
